PubChem BioAssay AID504834 (National Center for Advancing Translational Sciences (NCATS), 2011)
About 22,000 (6.9%) of roughly 320,000 compounds were called active. Inconclusive means that the source gave no clear call. Such entries were picked first, then a sample of the others. Calls come from the whole dose curve; as a rule, active = well fitted inhibition curve with a large enough effect; inconclusive = small, poorly fitted or top-dose-only effect, or another doubt; inactive = no such curve, though single readings can be large or run the other way. Potencies of inconclusive entries are doubtful fits and often do not repeat.

Assay: Primary qHTS for delayed death inhibitors of the malarial parasite plastid, 96 hour incubation
Conditions: P. falciparum luciferase reporter growth; series mostly up to 28.7 µM; activity change, negative = inhibition: at the top concentration
Outline: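 Compounds incubated with erythrocytes infected by luciferase-expressing P. falciparum (2% hematocrit, 0.05% parasitemia final) for 96 hours, 37 C in 5% CO2. Growth inhibition scored as decreased luciferase luminescence.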
% is set by controls: 0 for no effect and ±100 for the full control effect; potency is the fitted concentration of half-maximal effect.

SMILES | Potency | activity change, negative = inhibition
COCC1CCCN(C(=O)c2cc(COc3cccc4cccnc34)on2)C1 (stereo unspecified) | inconclusive: 18.5 µM [inhibitor, single point] | 
O=C(CSc1nnc(SCc2ccccc2)s1)N/N=C/C=C\c1ccco1 | inconclusive: 18.5 µM [inhibitor, single point] | 
COc1ccc2c(c1)[C@H]1[C@H](CO2)[C@H](c2ccccc2)[C@]2(C)C(=O)N(CC3CCCO3)CC(=O)N12 (stereo partly specified) | inconclusive: 4.65 µM [inhibitor, partial curve] | 
COc1ccccc1-c1cn(C(C)(C)C)nc1C |  | inactive: 43.5%
O=C(NCc1ccc(F)cc1)c1c(O)c2cccc3c2n(c1=O)CCC3 | inconclusive: 13.1 µM [inhibitor, single point] | 
COc1ccc(CCNC(=S)Nc2ccc(C(C)C)cc2)cc1 | inconclusive: 1.04 µM [inhibitor, partial curve, poor fit] | 
FC(F)(F)c1cccc(Cn2cnc(NC(=S)NCCc3ccccc3)n2)c1 | inconclusive: 18.5 µM [inhibitor, single point] | 
COc1ccc(NC(=S)N(CCN2CCOCC2)Cc2ccccc2F)cc1 | inconclusive: 1.17 µM [inhibitor, partial curve, poor fit] | 
COc1ccc(CC(=O)Nc2cccc3ccccc23)cc1OC |  | inactive: 2.09%
CC(C)(C)N(Cc1cc2ccccc2[nH]c1=O)C(=O)c1cccnc1 |  | inactive: -13.8%
Cc1ccc(S(=O)(=O)C2(C(=O)N3CCN(c4ccccc4F)CC3)CC2)cc1 |  | inactive: -14.5%
Cc1ccc(S(=O)(=O)N2CCN(CC(=O)N/N=C/c3ccccc3OCC(=O)O)CC2)cc1 |  | inactive: 5.92%
CCCN(CCC)C(=O)c1ccc2c(c1)N(CC)C(=O)c1ccccc1S2(=O)=O |  | inactive: -17.1%
O=C(COC(=O)Cc1ccc(-c2ccccc2)cc1)NCc1ccc(F)cc1 |  | inactive: -16.1%
O=C(CCc1nnc(Cc2c[nH]c3ccccc23)o1)NCC1CC12CCCCC2 (stereo unspecified) | inconclusive: 18.5 µM [inhibitor, single point] | 
CCN1C(=O)N/C(=C/c2cc(C)n(Cc3ccccc3)c2C)C1=O | inconclusive: 18.5 µM [inhibitor, single point] | 
Cc1ccc(-c2ncccc2OC(=O)C23CC4CC(CC(C4)C2)C3)cc1 | active: 9.28 µM | 
CC(=O)C1=C(O)CC(c2ccccc2)CC1=NCCc1ccccc1 (stereo unspecified) | inconclusive: 0.117 µM [inhibitor, full curve, poor fit] | 
COc1cc(NS(=O)(=O)c2ccc(NC(=O)c3cccnc3)cc2)ncn1 |  | inactive: -4.32%
Cc1cc(C)n2nc(Nc3ccccc3)cc2n1 | inconclusive: 0.928 µM [inhibitor, full curve] | 
COc1cccc(/C=N/NC(=O)CCn2cnc3ccccc32)c1 | inconclusive: 13.1 µM [inhibitor, single point] | 
COc1ccccc1N1CCN(C(=O)CCc2nnc3ccc(N4CCOCC4)nn23)CC1 | inconclusive: 18.5 µM [inhibitor, single point] | 
COC(=O)c1ccccc1NC(=S)N(Cc1ccc2c(c1)OCO2)Cc1cc2ccc(C)cc2[nH]c1=O | inconclusive: 18.5 µM [inhibitor, single point] | 
O=C(Nc1ccc(O)c(-c2nc3ccccc3s2)c1)c1cc(=O)c2ccccc2o1 | inconclusive: 2.08 µM [inhibitor, full curve] | 

SMILES | Potency | activity change, negative = inhibition
Cc1ccc(NC(=O)C2=C(O)CCn3c2nc2ccccc23)cc1 | inconclusive: 16.5 µM [inhibitor, partial curve, poor fit] | 
COC(=O)c1sccc1NC(=S)Nc1ccc(F)cc1 |  | inactive: -14.4%
CC(Oc1ccc(Cl)cc1Cl)C(=O)Nc1ccc(S(=O)(=O)Nc2cnc3ccccc3n2)cc1 (stereo unspecified) | inconclusive: 1.47 µM [inhibitor, full curve, poor fit] | 
COc1ccc(C2=CC(=O)C[C@H](c3ccc(F)cc3)C2)cc1F | inconclusive: 13.1 µM [inhibitor, single point] | 
COc1cc(CNCC(O)c2ccccc2)ccc1OCc1ccc(Cl)nc1 (stereo unspecified) | active: 3.7 µM | 
Cc1ccc(NC(=O)c2ccc(OC(F)(F)F)cc2)cc1S(=O)(=O)N(C)C | inconclusive: 18.5 µM [inhibitor, single point] | 
CCn1c(SCC(=O)Nc2nccs2)nnc1-c1cccnc1 |  | inactive: 20.6%
CCOc1cc2[nH]c(=O)n(CC3CCC(C(=O)NCCCOC)CC3)c(=O)c2cc1OCC (stereo unspecified) |  | inactive: -5.3%
O=C1CSC(=S)N1/N=C/c1ccc(C(F)(F)F)cc1 |  | inactive: 31.1%
O=C(COC(=O)c1ccco1)Nc1nc2ccccc2s1 |  | inactive: -2.2%
O=C(Nc1cccc(S(=O)(=O)N2CCOCC2)c1)C1CC(=O)N(c2ccc3c(c2)OCCO3)C1 (stereo unspecified) | inconclusive: 3.7 µM [inhibitor, full curve, poor fit] | 
Cc1cccc(NC(=O)/C=C/c2ccc([N+](=O)[O-])s2)c1 | active: 2.62 µM | 
Cc1ccc(C(=O)NCC(=O)Nc2cccc(C(F)(F)F)c2)cc1 | inconclusive: 13.1 µM [inhibitor, single point] | 
Cn1cccc1C(C(=O)NC1CCCCC1)N(C(=O)Cc1cccs1)c1ccc2c(c1)OCO2 (stereo unspecified) | inconclusive: 4.65 µM [inhibitor, partial curve, poor fit] | 
COc1ccc(C2C(C#N)=C(N)N(c3ccccc3C#N)C3=C2C(=O)CCC3)cc1CN1CCCC1 (stereo unspecified) | inconclusive: 8.28 µM [inhibitor, partial curve] | 
NC(=O)CSc1nc2cccnc2n1-c1ccc(F)cc1 | inconclusive: 9.28 µM [inhibitor, partial curve] | 
Cc1nnc(SC(C)C(=O)Nc2ncc(Cl)cc2Cl)n1Cc1ccccc1 (stereo unspecified) | active: 2.08 µM | 
Cc1ccc(NC(=O)C/C(N)=N/OC(=O)Nc2cccc(C)c2)cc1 |  | inactive: 37.6%
O=C(Cc1ccsc1)N1CCN(S(=O)(=O)c2ccccc2F)CC1 |  | inactive: -3.61%
COc1cc(C(=O)OCC(=O)NC2CCCC2)cc(NC(=O)c2ccco2)c1OC | inconclusive: 3.7 µM [inhibitor, full curve] | 
CC1CN(C(=O)c2ccc(COc3ccccc3Br)o2)CC(C)O1 (stereo unspecified) | inconclusive: 0.104 µM [inhibitor, full curve, poor fit] | 
Cn1c2ccccc2c2c(C(=O)O)cn(C3CCCC3)c(=O)c21 | inconclusive: 18.5 µM [inhibitor, single point] | 
Cc1ccc(C)c(NC(=O)C2CCN(C(=O)c3cccs3)CC2)c1 | inconclusive: 2.94 µM [inhibitor, partial curve] | 
CCOc1ccc(N(CC)C(=O)CCNC(=O)Cn2ccc3ccccc3c2=O)cc1 | inconclusive: 18.5 µM [inhibitor, single point] | 

SMILES | Potency | activity change, negative = inhibition
CCN(CCn1cccn1)C(=O)CC1C(=O)NCCN1CC1CCCCC1 (stereo unspecified) | inconclusive: 9.28 µM [inhibitor, single point] | 
Cc1ccc(S(=O)(=O)N(C)c2ccc(OC(C)C(=O)N3CCCC3)cc2)cc1C (stereo unspecified) | inconclusive: 10.4 µM [inhibitor, single point] | 
Cn1cc(S(=O)(=O)Nc2ccc3c(c2)OCCO3)cn1 | inconclusive: 0.262 µM [inhibitor, full curve, poor fit] | 
COc1cccc(/C=N/NC(=O)c2cccc(N3CCCC3=O)c2)c1 | inconclusive: 18.5 µM [inhibitor, partial curve, poor fit] | 
O=C(NC1=NCCS1)c1ccccc1OCc1ccccc1Cl | inconclusive: 0.415 µM [inhibitor, full curve, poor fit] | 
Cc1ccc(CN(Cc2ccco2)C(=O)c2ccco2)cc1 |  | inactive: 15.9%
COc1ccccc1-n1c2nc3ccccc3nc2c2c(=O)n(-c3cc(C)cc(C)c3)cnc21 | inconclusive: 11.7 µM [inhibitor, single point] | 
N#Cc1nc(-c2ccc(F)cc2)oc1NCc1cccc2c1OCO2 |  | inactive: 21.8%
Cc1[nH]c(C)c(S(=O)(=O)N2CCN(c3cccc(C(F)(F)F)c3)CC2)c1C(=O)N1CCCCC1 | inconclusive: 13.1 µM [inhibitor, single point] | 
CN(C)C(=O)Oc1ccc(NC(=O)N2CCOCC2)cc1 | active: 3.29 µM | 
O=C(Nc1sc2c(c1-c1nc3ccccc3[nH]1)CCCC2)C1CCCC1 | active: 13.1 µM | 
C/C(=N\NC(=O)c1ccc(Cn2cc(Br)cn2)o1)c1cccc(NC(=O)C(C)C)c1 | active: 11.7 µM | 
CCn1nc(C)c(CNC(=O)C2CCC(=O)N(CCc3ccc(Cl)cc3)C2)c1C (stereo unspecified) | active: 9.28 µM | 
O=C(Cn1ncc2c3ccccc3n(Cc3ccccc3)c2c1=O)NCCCN1CCCC1=O | inconclusive: 10.4 µM [inhibitor, single point] | 
O=C(COC(=O)c1ccccc1Nc1ccc(SC(F)F)cc1)NCc1ccco1 | inconclusive: 18.5 µM [inhibitor, single point] | 
O=C(CN1C(=O)/C(=C/c2ccco2)SC1=S)Nc1ccc(C(=O)O)c(O)c1 | inconclusive: 0.415 µM [inhibitor, partial curve, poor fit] | 
c1c(C2CCCCC2)n[nH]c1CN1CCCCC1 |  | inactive: -24.7%
O=C(/C=C/c1ccccc1)c1ccc2c3c(cccc13)CC2 | inconclusive: 18.5 µM [inhibitor, single point] | 
CCOC(=O)C(=O)N(Nc1ccccc1C)c1ccccc1C |  | inactive: -13.3%
O=C(CNC(=O)N1CC(=O)Nc2ccccc21)Nc1ccc(F)c(Cl)c1 |  | inactive: 36.1%
O=C1c2ccccc2C(Nc2ccc(Cl)cn2)N1c1cccnc1 (stereo unspecified) |  | inactive: -5.24%
COc1ccc(/C=C/C(=O)Nc2ccccc2C(=O)N2CCCC2)cc1 |  | inactive: -3.5%
COC(=O)[C@]1(Cc2ccccc2)N[C@H](c2ccc(-c3ccc4c(c3)OCO4)cc2)[C@@H]2C(=O)N(C)C(=O)[C@@H]21 | inconclusive: 18.5 µM [inhibitor, single point] | 

Some values from the list:
Potency with O=C(Nc1sc2c(c1-c1nc3ccccc3[nH]1)CCCC2)C1CCCC1 is entered as active: 13.1 µM
activity change, negative = inhibition with CCOC(=O)C(=O)N(Nc1ccccc1C)c1ccccc1C is entered as inactive: -13.3%
Potency with CCn1nc(C)c(CNC(=O)C2CCC(=O)N(CCc3ccc(Cl)cc3)C2)c1C (stereo unspecified) is entered as active: 9.28 µM
activity change, negative = inhibition with COc1ccc(/C=C/C(=O)Nc2ccccc2C(=O)N2CCCC2)cc1 is entered as inactive: -3.5%
